The whole screen tested about 330,000 compounds, of which about 7,700 (2.3%) were called active. Inconclusive means that the source gave no clear call. Such entries were picked first, then a sample of the others. Calls come from the whole dose curve; as a rule, active = well fitted inhibition curve with a large enough effect; inconclusive = small, poorly fitted or top-dose-only effect, or effect the other way; inactive = flat fitted curve, though single readings scatter. Potencies of inconclusive entries are doubtful fits and often do not repeat.
Test: qHTS screen for small molecules that inhibit ELG1-dependent DNA repair in human embryonic kidney (HEK293T) cells expressing luciferase-tagged ELG1; note: nearly all actives have a fitted effect of over 55% in size
Details: HEK293T ELG1-luciferase reporter, luminescence, 16 h, DNA damage induced by 5-fluorouridine; series mostly up to 46.1 µM
How it was run: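 5-Fluorouridine DNA damage + compound/DMSO, 2,000 cells/well, 16 h, 37 °C/5% CO2. ONE-Glo, 30 min RT, luminescence. Readout = decrease in reporter signal.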
Potency is the fitted concentration of half-maximal effect.

SMILES	Potency
CN1C(=O)/C(=C\N2CCc3ccccc32)C(=O)NC1=S	inactive
C/C(=N\NC(=S)Nc1ccccc1)c1c(O)n(C)c(=O)n(C)c1=O	inconclusive: 29.1 µM [activator, single point]
COC(=O)C1=C(c2ccccc2OCc2ccccc2)C[C@@H]2CC[C@H]1N2C(=O)NCc1ccc(N(C)C)cc1	active: 16.4 µM
COc1ccccc1OCCCn1cc(C(=O)c2ccco2)c2ccccc21	inconclusive: 29.1 µM [inhibitor, single point]
CC(=NCc1ccc2c(c1)OCO2)c1c(O)n(C)c(=O)n(C)c1=O	inconclusive: 20.6 µM [inhibitor, partial curve, poor fit]
O=C(NC(=S)N1C[C@H]2C[C@H](C1)c1cccc(=O)n1C2)c1ccc(Cl)cc1Cl	inactive
COC(=O)C1=C(c2cccc(C#N)c2)C[C@@H]2CC[C@H]1N2C(=O)NCc1ccco1	inconclusive: 23.1 µM [activator, single point]
CCOc1ccccc1-n1c(O)c(C=NCCCN(CC)CC)c(=O)[nH]c1=O	inconclusive: 29.1 µM [inhibitor, single point]
COc1ccc(-c2nn(-c3ccccc3)cc2C(=O)N2c3ccc(C)cc3C3CN(C)CCC32)cc1 (centres undefined)	inconclusive: 29.1 µM [inhibitor, single point]
CC1CCN(C(=O)COC(=O)c2cn(C)c3ccccc23)CC1	inconclusive: 11.6 µM [activator, partial curve, poor fit]
O=C(OCC(=O)N1CCCCC1)c1cc(S(=O)(=O)N2CCOCC2)c(Cl)cc1Cl	inconclusive: 29.1 µM [activator, single point]
CC1(C)CN2C(c3ccc(Cl)cc3)N2C1 (centres undefined)	inactive
O=c1c2ccccc2nc(/C=C/c2ccc3c(c2)OCO3)n1-c1cccc(O)c1	active: 16.4 µM
COC(=O)c1c(N)n(Cc2ccc(OC)cc2)c2nc3ccccc3nc12	inconclusive: 29.1 µM [inhibitor, single point]
CCCCn1c(=O)c(C(=O)NCc2ccco2)c(O)c2ccccc21	inconclusive: 20.6 µM [inhibitor, single point]
Cc1cccc(N=Nc2ccc(N(C)C)cc2)c1	inconclusive: 5.17 µM [activator, partial curve]
CCCn1c(C)c(C(=O)c2cccc3ccccc23)c2ccccc21	inactive
COc1ccccc1N=Nc1ccc(N)c(C)c1	inconclusive: 13 µM [activator, partial curve]
CC(=O)Nc1ccc(NC(=O)Oc2ccccc2)cc1	inconclusive: 3.66 µM [activator, partial curve, poor fit]
CCN(CC)C(=O)c1ccc(NC(=O)c2cccc(F)c2)cc1	inconclusive: 23.1 µM [activator, partial curve]
COc1ccc(NC2=NCC(C)S2)cc1 (centres undefined)	inactive
Brc1c(NC2=NCCN2)ccc2nccnc12	inconclusive: 0.651 µM [inhibitor, partial curve, poor fit]

SMILES	Potency
O=C1OC(=O)C2C1[C@@H]1CC[C@H]2O1 (some centres undefined)	inconclusive: 14.6 µM [activator, partial curve]
Nc1c2c(nc3sc4c(c13)CCCC4)CCCCC2	inconclusive: 3.26 µM [activator, full curve]
C[C@H](CO)N1C[C@H](C)[C@@H](CN(C)C(=O)Nc2ccc(C(F)(F)F)cc2)Oc2c(NS(=O)(=O)c3cccs3)cccc2C1=O	inconclusive: 29.1 µM [activator, partial curve, poor fit]
CCn1cc(C(=O)N[C@@H](C)C(=O)OC)c(=O)c2cc3c(cc21)OCO3	inconclusive: 23.1 µM [activator, partial curve, poor fit]
CCCn1c(=O)n(C)c(=O)c2c(SCC(=O)NC34CC5CC(CC(C5)C3)C4)nc(CC(C)C)nc21	active: 23.1 µM
COC(=O)C1CN(C#N)N(c2ccc(Cl)cc2)C12c1ccccc1-c1ccccc12 (centres undefined)	active: 5.8 µM
CN(C)C(=O)Oc1ccc(OCc2n(C)c3ccccc3[n+]2C)cc1	inactive
COC(=O)C1=C(c2ccc(OC)c(OC)c2)C[C@@H]2CC[C@H]1N2C(=O)N1CCC(O)CC1	inactive
Cc1cccc(N2C(=O)NC(=O)/C(=C\c3ccc4c(c3)CCCN4Cc3ccccc3)C2=O)c1	inconclusive: 20.6 µM [activator, single point]
OCC[n+]1c2ccccc2nc2ccc(N3CCOCC3)cc21	active: 23.1 µM
C=C1C2C[C@@]3([C@@H]1O)[C@@H](C[C@@H]2O)[C@@]12C4[C@@H]3C[C@@H]1[C@@](C)(CC[C@@H]2O)CN4CC	inconclusive: 35.5 µM [activator, single point]
CC(=NCCO)c1c(O)n(C2CCCCC2)c(=O)[nH]c1=O	inactive
C/C(=N\NC(N)=S)C12CC3CC(CC(C3)C1)C2	inconclusive: 8.2 µM [inhibitor, partial curve, poor fit]
COc1ccc(CNCCc2ccc(Cl)cc2)c(OC)c1OC	inconclusive: 18.3 µM [inhibitor, single point]
CN1CCC(O)(c2ccc(Cl)cc2)C(C(=O)c2ccc(Cl)cc2)C1 (centres undefined)	inactive
CCCCCCOc1ccc(CN2CCN(CCO)CC2)cc1	inconclusive: 8.2 µM [activator, partial curve]
O=C(C1CCN(c2nc3ccc(Br)cc3s2)CC1)N1CCC2(CC1)OCCO2	inconclusive: 20.6 µM [activator, partial curve]
Cc1ccc(-c2ccc(=O)n(CCC(=O)N3CCC4(CC3)OCCO4)n2)cc1	inconclusive: 29.1 µM [activator, single point]
Cc1ccc2cccc(OC(=O)N3CCCC3)c2n1	inactive
Cc1ccc(CN2CCCC(C(=O)c3sccc3C)C2)o1 (centres undefined)	inactive
COC(=O)C1=C(c2ccc(F)cc2OCc2ccccc2)C[C@@H]2CC[C@H]1N2C(=O)NC1CCCCC1	inconclusive: 29.1 µM [inhibitor, single point]
COCCCn1c(N)c(C(=O)OCCOC)c2nc3ccccc3nc21	inconclusive: 16.4 µM [inhibitor, partial curve, poor fit]

Structural class: the compounds so far containing a cyano group
SMILES	Potency
COC(=O)C1=C(c2cccc(C#N)c2)C[C@@H]2CC[C@H]1N2C(=O)NCc1ccco1	inconclusive: 23.1 µM [activator, single point]
COC(=O)C1CN(C#N)N(c2ccc(Cl)cc2)C12c1ccccc1-c1ccccc12 (centres undefined)	active: 5.8 µM

Next part

SMILES	Potency
CC(=O)O[C@H]1CCC2C3CCC4=CC(=O)CCC4=C3C=C[C@@]21C (some centres undefined)	inactive
COCCNC(=O)c1c(NC(=O)c2ccc(Br)o2)n(Cc2ccccc2)c2nc3ccccc3nc12	inconclusive: 23.1 µM [inhibitor, partial curve, poor fit]
O=C(Cn1ncc2c3ccccc3n(Cc3ccccc3)c2c1=O)N1CCC2(CC1)OCCO2	inconclusive: 18.4 µM [inhibitor, single point]
COC(=O)C1=C(c2ccc(OC(F)(F)F)cc2)C[C@@H]2CC[C@H]1N2C(=O)NCc1cccc2ccccc12	inconclusive: 20.6 µM [inhibitor, partial curve, poor fit]
CCOC(=O)c1c(C)[nH]c(C(=O)C(Cc2ccccc2)N(C)C)c1C (centres undefined)	inactive
COc1cccc(OCCNC(=O)c2cc([N+](=O)[O-])cc([N+](=O)[O-])c2)c1	inconclusive: 18.3 µM [inhibitor, partial curve, poor fit]
C[C@]12CCC3C(CC[C@H]4CC(O)CC[C@]34C)C1CC/C2=N/NC(=O)c1ccncc1 (some centres undefined)	inconclusive: 25.9 µM [inhibitor, partial curve, poor fit]
Cc1c(P(=S)(c2ccccc2)c2ccccc2)[n+]2ccccc2n1C	inconclusive: 29.1 µM [inhibitor, single point]
Cc1cccc(OCCn2c(=O)oc3ccc(C)cc32)c1	inconclusive: 14.6 µM [activator, partial curve]
CCOc1cc2c(cc1OCC)-n1cccc1C(c1ccc(OC)cc1)NC2 (centres undefined)	inconclusive: 29.1 µM [inhibitor, single point]
O=[N+]([O-])c1ccc(C[n+]2c(-c3ccccc3)cc(-c3ccccc3)cc2-c2ccccc2)cc1	inconclusive: 6.31 µM [inhibitor, single point]
Clc1ccc(C(c2ccc(Cl)cc2)n2cc[n+](CC(OCc3ccc(Cl)cc3Cl)c3ccc(Cl)cc3Cl)c2)cc1 (centres undefined)	inconclusive: 35.5 µM [inhibitor, single point]
COC(=O)C1=C(c2ccc(F)cc2OCc2ccccc2)C[C@@H]2CC[C@H]1N2C(=O)NCc1ccc(N(C)C)cc1	inconclusive: 29.1 µM [inhibitor, single point]
CCN1C(=O)NC(=O)/C(=C/c2cc(C)n(-c3sc(C)c(C)c3C#N)c2C)C1=O	inconclusive: 29.1 µM [activator, single point]
O=C1/C(=C/c2cccnc2)SC(=NCc2ccccc2)N1Cc1ccccc1	inconclusive: 29.1 µM [inhibitor, single point]
CCN(CC)c1ccc(C=C2C(=O)N(C)C(=S)N(C)C2=O)o1	inconclusive: 18.4 µM [activator, partial curve]
O=C(CF)NC(NC(=S)Nc1ccccc1O)C(Cl)(Cl)Cl (centres undefined)	inconclusive: 16.4 µM [inhibitor, single point]
CN(c1ccc(OCC(=O)N2CCN(C/C=C/c3ccccc3)CC2)cc1)S(=O)(=O)c1cccs1	active: 13 µM
CCN1CCN(S(=O)(=O)c2ccc(Cl)c(C(=O)Nc3ccc(C(=O)N(CC)CC)cc3)c2)CC1	inconclusive: 9.2 µM [inhibitor, partial curve, poor fit]
N#CC(C#N)=C(C#N)c1ccc(Nc2ccccc2)cc1	inactive

From PubChem BioAssay AID504467 (National Center for Advancing Translational Sciences (NCATS), 2011)
